Data reported in patent publication US20240318142A1, “METHOD FOR PRODUCING RENAL INTERSTITIAL PROGENITOR CELLS, ERYTHROPOIETIN-PRODUCING CELLS, AND METHOD FOR PRODUCING RENIN-PRODUCING CELLS” (KYOTO UNIVERSITY, priority 2021, published 2024).
For at least one compound, name, drawing or mass did not settle the structure.

How the values were obtained:
[1] = test system: hiPSC-derived IPCs; experiment: qRT-PCR of renin and mesangial/JG cell markers after further differentiation induction from IPCs (renin-producing cells); assay type: cell-based, human; conditions: axitinib 3 μM (VEGF receptor inhibitor); FIG. 14
Procedure: FIG. 9 is a diagram illustrating results of qRT-PCR analysis of EPO and renin carried out on Days 11 to 14, that is, after obtaining renal interstitial progenitor cells, for comparison of the effects of combinations of candidate differentiation induction factors for renal EPO-producing cells or renin-producing cells. The SAG concentration was 500 nM, and the concentrations of SB and CHIR are expressed in the unit of μM.
FIG. 10 is a diagram illustrating results of qRT-PCR analysis of EPO and renin on Days 11 to 14, that is, after obtaining renal interstitial progenitor cells, for comparison of the effects of combinations of various candidate differentiation induction factors. The SAG concentration was 500 nM; the concentrations of SB and A83 are expressed in the unit of μM; LDN is expressed in the unit of nM; and TGFβ1, BMP7, and activin (ACT) are expressed in the unit of ng/mL.
FIG. 11 is a diagram illustrating results of qRT-PCR analysis of renin on Days 11 to 14, that is, after obtaining renal interstitial progenitor cells, for comparison of the effects of various factors. In the presence of CHIR99021, RA, and FG-4592 (CFR), the effects of BMP4, BMP5, and BMP7 (10 ng/mL or 100 ng/mL) were investigated under conditions with or without treatment by SB431542 (1 μM). SB is expressed in the unit of […], and TGFβ1 and ACT are expressed in the unit of ng/mL. […]

[2] = test system: PPS cells obtained by differentiation induction from human iPS cells; experiment: Induction of FOXD1-positive renal interstitial progenitor cells (IPC) from PPS cells, flow cytometric analysis (FOXD1 and OSR1) on Day 11; assay type: cell-based; conditions: 5 days of treatment (Days 6 to 11) with the combination CHIR99021 1 μM, SB431542 10 μM and RA 100 nM; FIG. 3
Procedure: FIG. 3 is a diagram illustrating results of flow cytometric analysis (FOXD1 and OSR1), carried out on Day 11, of cells that were treated with various combinations of factors during the differentiation induction period of Days 6 to 11 (the period corresponding to “Screening” in FIG. 1). The following concentrations were employed: 1 μM CHIR99021 (CHIR), 10 μM SB431542 (SB), 100 nM retinoic acid (RA), 200 ng/mL FGF9, and 25 ng/mL Noggin.
FIG. 5 is a diagram illustrating results of flow cytometric analysis (FOXD1 and OSR1), carried out on Day 11, of cells that were treated or not treated with Smoothened Agonist (SAG) (concentration, 500 nM) during the differentiation induction period of Days 6 to 8. ** indicates p<0.01 (Student's t-test), and NS indicates “no significant difference”.
FIG. 6 is a diagram illustrating results of flow cytometric analysis (FOXD1 and OSR1), carried out on Day 11, of cells that were treated with various factors during the differentiation induction period of Days 6 to 8. The following concentrations were employed: 1 μM CHIR, 10% Wnt3a, 200 ng/mLRSPO1 (R-Spondin-1), 500 nM SAG, 10 ng/mL IL-1β, 50 ng/mL Estradiol, and 10 ng/mL TGFβ1. […]

SMILES: CNC(=O)c1ccccc1Sc1ccc2c(/C=C/c3ccccn3)n[nH]c2c1 [axitinib]
- effect of VEGF on expression of JG and mesangial cell markers [1]: reduced

SMILES: CC1=C(/C=C/C(C)=C/C=C/C(C)=C/C(=O)O)C(C)(C)CCC1 [retinoic acid]
- induction of FOXD1-positive cells [2]: could be induced
